Results are given in words; binding and its absence hold for the method and conditions named. Binding seen in cells or lysates may run through a third protein.
Columns and labels:
[1] = biological target: T1, BEI (Oryza sativa subsp. indica cv. IR36 (endogenous in developing seeds)) (UniProt Q01401); assay: co-IP; soluble proteins of developing seeds of WT (IR36) at 10 DAF incubated with isozyme-specific antibodies and protein A magnetic beads; washed with PBS pH 7.4; Western blotting
T1 sequence: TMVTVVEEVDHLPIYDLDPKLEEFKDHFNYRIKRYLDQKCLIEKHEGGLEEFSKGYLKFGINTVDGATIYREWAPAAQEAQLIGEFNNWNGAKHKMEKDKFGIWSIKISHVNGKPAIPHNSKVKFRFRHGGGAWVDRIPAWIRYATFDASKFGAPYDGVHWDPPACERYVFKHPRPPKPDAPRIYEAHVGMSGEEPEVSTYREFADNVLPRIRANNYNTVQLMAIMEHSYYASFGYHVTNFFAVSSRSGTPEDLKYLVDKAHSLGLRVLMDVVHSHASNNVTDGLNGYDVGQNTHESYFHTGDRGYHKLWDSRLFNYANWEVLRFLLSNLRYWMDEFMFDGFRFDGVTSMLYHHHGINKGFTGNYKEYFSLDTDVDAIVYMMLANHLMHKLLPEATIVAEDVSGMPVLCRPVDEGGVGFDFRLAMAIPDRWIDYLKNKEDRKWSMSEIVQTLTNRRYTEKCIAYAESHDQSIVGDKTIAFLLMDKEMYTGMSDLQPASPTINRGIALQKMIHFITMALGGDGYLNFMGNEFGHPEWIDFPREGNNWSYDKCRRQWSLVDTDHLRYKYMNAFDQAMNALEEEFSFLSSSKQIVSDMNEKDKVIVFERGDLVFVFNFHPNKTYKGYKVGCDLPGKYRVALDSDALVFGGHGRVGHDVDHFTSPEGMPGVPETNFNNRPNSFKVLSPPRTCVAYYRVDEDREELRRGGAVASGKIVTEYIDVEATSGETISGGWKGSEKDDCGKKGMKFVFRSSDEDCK

[2] = biological target: SSIIIa (Oryza sativa subsp. indica cv. IR36 (endogenous in developing seeds)); assay: as above
[3] = biological target: T2, SSIIa (Oryza sativa subsp. indica cv. IR36 (endogenous in developing seeds)) (UniProt P0C586); assay: as above
T2 sequence: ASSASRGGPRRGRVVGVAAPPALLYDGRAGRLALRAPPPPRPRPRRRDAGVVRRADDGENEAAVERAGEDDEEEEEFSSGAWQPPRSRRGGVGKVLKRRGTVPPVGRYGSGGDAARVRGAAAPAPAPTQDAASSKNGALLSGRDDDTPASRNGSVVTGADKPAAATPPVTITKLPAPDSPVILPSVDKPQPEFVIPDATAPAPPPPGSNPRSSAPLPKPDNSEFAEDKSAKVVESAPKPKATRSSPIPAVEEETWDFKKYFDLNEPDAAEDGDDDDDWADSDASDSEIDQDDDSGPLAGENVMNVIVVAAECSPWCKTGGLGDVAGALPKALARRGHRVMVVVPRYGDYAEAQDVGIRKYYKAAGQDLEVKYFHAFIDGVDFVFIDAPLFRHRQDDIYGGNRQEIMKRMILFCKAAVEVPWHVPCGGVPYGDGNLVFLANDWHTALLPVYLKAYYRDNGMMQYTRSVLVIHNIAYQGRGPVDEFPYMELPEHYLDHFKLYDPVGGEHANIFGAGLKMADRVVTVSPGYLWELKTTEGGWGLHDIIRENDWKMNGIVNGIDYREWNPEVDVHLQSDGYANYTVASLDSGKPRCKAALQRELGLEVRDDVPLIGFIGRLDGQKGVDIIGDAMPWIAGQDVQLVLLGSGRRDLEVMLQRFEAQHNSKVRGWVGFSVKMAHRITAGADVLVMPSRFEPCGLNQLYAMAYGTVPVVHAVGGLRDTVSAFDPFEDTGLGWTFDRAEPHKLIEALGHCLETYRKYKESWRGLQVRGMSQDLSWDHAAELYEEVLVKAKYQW

[4] = biological target: T1, BEI (Oryza sativa subsp. indica cv. IR36 (endogenous in developing seeds)); assay: co-IP; soluble proteins of developing seeds of WT (IR36) at 15 DAF incubated with isozyme-specific antibodies and protein A magnetic beads; washed with PBS pH 7.4; Western blotting
[5] = biological target: SSIIIa (Oryza sativa subsp. indica cv. IR36 (endogenous in developing seeds)); assay: as above
[6] = biological target: T2, SSIIa (Oryza sativa subsp. indica cv. IR36 (endogenous in developing seeds)); assay: as above
[7] = biological target: T1, BEI (Oryza sativa subsp. indica cv. IR36 (endogenous in developing seeds)); assay: co-IP; soluble proteins of developing seeds of the be2b mutant at 15 DAF incubated with isozyme-specific antibodies and protein A magnetic beads; washed with PBS pH 7.4; Western blotting
[8] = biological target: T2, SSIIa (Oryza sativa subsp. indica cv. IR36 (endogenous in developing seeds)); assay: as above

- binding [1]: no binding
- binding [2]: no binding
- binding [3]: no binding
- binding [4]: no binding
- binding [5]: no binding
- binding [6]: no binding
- binding [7]: no binding
- binding [8]: no binding
B1: ISA1 (enzyme, UniProt D0TZF0 55-803)
chain: SVASAVEVGVGEDEEEGVEEEEEEVEAVVMPERYALGGACRVLAGMPAPLGATALDGGVNFAVYSAGASAASLCLFTPDDLEADEVTEEVPLDPLFNRTGNVWHVFIEGELHNMLYGYRFDGMFAPHCGQYFDVSNVVVDPYAKAVISRGEYGVPGPGGDCWPQMAGMIPLPYSTFDWQGDLPLRYPQKDLVIYEMHLRGFTKHSSSNVEHPGTYIGAISKLDYLKELGVNCVELMPCHEFNELEYFSCSSKMNFWGYSTINFFSPMIRYSSGGIRNCGRDAINEFKTFVREAHKRGIEVIMDVVFNHTAEGNEKGPILSFRGIDNSTYYMLAPKGEFYNYSGCGNTFNCNHPVVREFIVDCLRYWVTEMHVDGFRFDLASIMTRGCSLWDPVNVYGSPVEGDMTTTGTPLATPPLIDMISNDPILGDVKLIAEAWDAGGLYQVGQFPHWKIWSEWNGKYRDIVRQFIKGTDGFAGGFAECLCGSPHLYQAGGRKPWHSINFVCAHDGFTLADLVTYNKKYNSSNGEDNRDGENHNLSWNCGEEGEFAGLSVKRLRKRQMRNFFVSLMVSQGVPMFYMGDEYGHTKGGNNNTYCHDHYVNYFRWDKKEESSDLQRFCSLMTKFRKQCESLGLADFPTAQRLHWHGHQPGKPDWSETSRFVAFSTKDETKGEIYVAFNASHLPAVVGLPERPGYRWEPLVDTGKPAPYDFLTDDLPDRAHAVHLFSHFLNSNLYPMLSYSSIILELQPDD
